{"sequences": {"note": "Chains of the proteins cited; added tags and fusions are not shown. Lines headed by an entry give the natural chain unless they say otherwise; changes in a name come on top.", "UniProt Q96CV9, whole entry": "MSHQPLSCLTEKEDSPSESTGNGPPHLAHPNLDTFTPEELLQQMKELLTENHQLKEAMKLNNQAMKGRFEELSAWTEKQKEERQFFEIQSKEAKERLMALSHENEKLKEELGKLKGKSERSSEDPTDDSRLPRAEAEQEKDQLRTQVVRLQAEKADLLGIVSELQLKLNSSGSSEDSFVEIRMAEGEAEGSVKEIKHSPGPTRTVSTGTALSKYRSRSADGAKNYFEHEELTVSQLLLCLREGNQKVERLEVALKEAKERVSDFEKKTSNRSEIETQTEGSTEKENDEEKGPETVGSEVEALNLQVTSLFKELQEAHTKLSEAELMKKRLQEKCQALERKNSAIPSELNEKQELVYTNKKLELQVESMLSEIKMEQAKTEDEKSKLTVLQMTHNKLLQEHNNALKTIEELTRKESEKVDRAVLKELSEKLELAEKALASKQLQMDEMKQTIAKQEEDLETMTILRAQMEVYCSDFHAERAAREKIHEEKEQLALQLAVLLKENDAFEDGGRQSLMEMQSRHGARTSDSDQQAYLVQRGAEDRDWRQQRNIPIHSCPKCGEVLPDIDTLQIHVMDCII", "UniProt Q969U6": "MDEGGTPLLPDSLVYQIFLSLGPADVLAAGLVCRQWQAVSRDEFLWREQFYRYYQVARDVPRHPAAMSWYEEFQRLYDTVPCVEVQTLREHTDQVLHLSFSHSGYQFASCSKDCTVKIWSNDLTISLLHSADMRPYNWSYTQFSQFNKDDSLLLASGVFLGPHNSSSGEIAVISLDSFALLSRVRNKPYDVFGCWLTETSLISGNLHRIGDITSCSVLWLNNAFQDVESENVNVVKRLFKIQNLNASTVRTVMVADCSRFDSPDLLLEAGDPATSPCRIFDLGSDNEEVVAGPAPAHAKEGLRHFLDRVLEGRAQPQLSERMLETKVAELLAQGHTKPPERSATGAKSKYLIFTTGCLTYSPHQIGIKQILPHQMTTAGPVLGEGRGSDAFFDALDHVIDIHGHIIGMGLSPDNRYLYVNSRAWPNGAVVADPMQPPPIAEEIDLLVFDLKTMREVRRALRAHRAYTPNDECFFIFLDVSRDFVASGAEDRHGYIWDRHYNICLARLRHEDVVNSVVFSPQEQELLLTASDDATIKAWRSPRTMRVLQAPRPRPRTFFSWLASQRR", "UniProt Q92945": "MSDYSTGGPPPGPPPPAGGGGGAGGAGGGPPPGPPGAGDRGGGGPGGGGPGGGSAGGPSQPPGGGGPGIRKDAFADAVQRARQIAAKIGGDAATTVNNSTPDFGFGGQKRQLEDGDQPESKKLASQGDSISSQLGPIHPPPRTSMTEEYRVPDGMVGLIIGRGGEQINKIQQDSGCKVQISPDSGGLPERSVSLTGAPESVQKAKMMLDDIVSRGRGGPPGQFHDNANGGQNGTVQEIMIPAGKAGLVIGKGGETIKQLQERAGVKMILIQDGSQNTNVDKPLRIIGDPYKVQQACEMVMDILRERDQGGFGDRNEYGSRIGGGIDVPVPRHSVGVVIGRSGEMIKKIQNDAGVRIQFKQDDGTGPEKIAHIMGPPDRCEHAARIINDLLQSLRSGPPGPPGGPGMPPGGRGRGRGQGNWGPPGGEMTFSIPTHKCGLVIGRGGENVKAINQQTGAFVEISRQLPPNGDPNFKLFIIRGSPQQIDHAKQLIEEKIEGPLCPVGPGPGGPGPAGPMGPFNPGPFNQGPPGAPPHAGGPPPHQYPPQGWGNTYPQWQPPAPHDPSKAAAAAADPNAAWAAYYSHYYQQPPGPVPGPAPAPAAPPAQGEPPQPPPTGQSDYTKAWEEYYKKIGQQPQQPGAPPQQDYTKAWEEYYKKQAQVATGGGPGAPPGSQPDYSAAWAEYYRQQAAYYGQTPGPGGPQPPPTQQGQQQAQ", "UniProt Q96C34": "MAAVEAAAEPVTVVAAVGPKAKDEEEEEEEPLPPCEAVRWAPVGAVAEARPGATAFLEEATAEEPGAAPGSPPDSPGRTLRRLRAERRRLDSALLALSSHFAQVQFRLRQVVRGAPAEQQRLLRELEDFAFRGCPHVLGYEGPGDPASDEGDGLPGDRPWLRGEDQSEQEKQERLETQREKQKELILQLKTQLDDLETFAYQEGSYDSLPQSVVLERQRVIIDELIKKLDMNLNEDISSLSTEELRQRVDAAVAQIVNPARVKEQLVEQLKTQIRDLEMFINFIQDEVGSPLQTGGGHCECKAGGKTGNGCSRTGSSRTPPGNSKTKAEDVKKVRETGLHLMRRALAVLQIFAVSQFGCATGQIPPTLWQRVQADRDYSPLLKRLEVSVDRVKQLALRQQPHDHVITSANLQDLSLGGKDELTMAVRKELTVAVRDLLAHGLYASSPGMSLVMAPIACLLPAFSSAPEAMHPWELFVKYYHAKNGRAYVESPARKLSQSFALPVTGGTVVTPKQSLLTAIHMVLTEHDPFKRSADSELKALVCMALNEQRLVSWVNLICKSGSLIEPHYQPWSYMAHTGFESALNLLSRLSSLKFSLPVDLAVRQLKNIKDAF", "UniProt Q96EM0": "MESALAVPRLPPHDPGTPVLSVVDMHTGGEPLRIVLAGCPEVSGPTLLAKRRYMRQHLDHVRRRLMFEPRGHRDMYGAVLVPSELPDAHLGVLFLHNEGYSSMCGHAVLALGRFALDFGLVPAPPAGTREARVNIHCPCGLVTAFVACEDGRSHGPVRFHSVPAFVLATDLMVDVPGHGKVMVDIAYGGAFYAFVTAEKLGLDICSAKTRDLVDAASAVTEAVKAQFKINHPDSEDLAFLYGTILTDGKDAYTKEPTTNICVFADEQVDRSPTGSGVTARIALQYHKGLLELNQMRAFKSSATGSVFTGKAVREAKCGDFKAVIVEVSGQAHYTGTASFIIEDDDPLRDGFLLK", "UniProt Q96FV9": "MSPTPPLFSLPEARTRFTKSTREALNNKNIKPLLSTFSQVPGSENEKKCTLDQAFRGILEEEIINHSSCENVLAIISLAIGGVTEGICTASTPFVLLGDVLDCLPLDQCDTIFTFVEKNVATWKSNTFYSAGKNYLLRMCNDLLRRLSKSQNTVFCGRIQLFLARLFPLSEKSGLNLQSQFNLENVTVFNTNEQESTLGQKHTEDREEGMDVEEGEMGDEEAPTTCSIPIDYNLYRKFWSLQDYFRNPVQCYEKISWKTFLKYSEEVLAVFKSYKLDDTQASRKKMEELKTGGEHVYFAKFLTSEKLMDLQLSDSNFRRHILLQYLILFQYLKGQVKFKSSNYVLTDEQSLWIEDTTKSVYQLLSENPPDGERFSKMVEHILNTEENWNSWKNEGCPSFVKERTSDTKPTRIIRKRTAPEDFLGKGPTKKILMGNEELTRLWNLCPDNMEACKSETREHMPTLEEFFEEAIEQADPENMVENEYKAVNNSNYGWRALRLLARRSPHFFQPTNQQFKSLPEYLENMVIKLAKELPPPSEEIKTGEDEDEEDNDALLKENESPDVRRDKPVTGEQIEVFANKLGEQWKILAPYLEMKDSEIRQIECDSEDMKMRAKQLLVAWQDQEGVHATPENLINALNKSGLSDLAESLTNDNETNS", "UniProt Q96BH1": "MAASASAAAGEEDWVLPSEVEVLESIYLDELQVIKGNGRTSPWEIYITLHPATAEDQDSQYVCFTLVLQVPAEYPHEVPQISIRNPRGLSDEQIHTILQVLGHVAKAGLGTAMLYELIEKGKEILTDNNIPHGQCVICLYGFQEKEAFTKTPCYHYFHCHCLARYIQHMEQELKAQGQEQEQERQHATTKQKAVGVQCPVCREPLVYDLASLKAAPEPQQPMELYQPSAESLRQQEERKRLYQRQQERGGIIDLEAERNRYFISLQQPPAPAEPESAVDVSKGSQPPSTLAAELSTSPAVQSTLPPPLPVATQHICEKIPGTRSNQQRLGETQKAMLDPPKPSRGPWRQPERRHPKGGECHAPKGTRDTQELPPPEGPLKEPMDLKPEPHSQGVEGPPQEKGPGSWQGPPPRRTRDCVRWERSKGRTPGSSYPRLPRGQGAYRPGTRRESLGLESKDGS", "UniProt Q96C86": "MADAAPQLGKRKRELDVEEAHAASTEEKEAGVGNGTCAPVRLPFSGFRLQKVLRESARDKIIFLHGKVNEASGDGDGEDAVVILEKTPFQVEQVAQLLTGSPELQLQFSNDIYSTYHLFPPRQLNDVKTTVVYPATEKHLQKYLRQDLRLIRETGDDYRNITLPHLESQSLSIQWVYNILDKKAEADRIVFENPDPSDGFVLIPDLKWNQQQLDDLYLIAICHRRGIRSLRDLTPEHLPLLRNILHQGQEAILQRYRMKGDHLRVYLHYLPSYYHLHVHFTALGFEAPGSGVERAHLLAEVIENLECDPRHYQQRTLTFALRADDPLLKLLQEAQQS", "UniProt Q96F07, whole entry": "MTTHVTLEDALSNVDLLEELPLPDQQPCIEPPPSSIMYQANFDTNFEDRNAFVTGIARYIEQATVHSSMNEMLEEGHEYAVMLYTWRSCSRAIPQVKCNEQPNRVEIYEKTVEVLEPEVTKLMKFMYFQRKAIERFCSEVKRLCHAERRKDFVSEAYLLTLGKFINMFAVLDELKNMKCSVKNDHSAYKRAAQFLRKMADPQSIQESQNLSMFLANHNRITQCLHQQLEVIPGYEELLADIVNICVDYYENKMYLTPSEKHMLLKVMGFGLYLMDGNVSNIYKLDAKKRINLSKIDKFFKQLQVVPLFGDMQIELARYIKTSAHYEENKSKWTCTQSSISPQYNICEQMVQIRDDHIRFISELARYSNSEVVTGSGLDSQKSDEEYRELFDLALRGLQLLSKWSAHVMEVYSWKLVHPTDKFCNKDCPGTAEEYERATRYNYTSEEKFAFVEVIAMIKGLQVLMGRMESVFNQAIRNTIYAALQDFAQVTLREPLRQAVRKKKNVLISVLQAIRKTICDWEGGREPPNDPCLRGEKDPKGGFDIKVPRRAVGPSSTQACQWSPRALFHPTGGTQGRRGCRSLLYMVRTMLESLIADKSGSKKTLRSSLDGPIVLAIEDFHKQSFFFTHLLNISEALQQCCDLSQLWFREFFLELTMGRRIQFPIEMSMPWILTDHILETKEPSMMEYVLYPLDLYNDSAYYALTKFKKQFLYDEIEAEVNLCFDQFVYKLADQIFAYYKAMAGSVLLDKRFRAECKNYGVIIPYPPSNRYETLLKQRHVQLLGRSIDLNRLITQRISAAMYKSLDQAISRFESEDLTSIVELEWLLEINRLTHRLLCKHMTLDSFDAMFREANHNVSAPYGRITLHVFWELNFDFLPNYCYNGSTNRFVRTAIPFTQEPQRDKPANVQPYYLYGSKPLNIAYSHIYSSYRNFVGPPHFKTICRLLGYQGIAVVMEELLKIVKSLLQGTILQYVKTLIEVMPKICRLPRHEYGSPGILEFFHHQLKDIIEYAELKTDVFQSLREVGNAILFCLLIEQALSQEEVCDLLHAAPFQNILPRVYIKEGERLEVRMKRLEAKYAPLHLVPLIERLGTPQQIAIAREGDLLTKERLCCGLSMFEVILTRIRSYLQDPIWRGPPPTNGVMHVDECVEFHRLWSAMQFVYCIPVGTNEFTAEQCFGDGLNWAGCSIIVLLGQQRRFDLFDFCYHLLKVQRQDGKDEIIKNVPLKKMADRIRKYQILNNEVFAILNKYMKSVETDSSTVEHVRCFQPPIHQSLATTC", "UniProt Q96C03": "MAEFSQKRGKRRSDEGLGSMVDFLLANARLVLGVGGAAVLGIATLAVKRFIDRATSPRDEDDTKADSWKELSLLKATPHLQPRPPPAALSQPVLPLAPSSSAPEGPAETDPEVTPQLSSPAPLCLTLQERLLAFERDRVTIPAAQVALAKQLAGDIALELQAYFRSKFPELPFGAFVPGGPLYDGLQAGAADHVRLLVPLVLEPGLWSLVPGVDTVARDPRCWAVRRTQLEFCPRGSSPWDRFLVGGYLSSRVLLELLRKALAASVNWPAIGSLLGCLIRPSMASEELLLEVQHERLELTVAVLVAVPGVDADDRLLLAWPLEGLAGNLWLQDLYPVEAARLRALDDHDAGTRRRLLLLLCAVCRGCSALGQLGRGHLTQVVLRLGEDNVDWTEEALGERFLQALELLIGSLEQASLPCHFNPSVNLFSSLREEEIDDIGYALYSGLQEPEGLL", "UniProt Q96F63": "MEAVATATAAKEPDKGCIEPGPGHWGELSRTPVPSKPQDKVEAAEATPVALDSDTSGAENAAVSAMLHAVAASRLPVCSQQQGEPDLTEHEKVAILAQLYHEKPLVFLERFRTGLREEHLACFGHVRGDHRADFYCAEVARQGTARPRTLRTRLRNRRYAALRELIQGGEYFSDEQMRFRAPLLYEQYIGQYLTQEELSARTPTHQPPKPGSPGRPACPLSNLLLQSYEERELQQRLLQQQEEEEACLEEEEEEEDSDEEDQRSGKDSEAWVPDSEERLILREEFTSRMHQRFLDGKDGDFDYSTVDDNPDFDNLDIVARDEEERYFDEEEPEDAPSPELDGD", "UniProt Q96DC9": "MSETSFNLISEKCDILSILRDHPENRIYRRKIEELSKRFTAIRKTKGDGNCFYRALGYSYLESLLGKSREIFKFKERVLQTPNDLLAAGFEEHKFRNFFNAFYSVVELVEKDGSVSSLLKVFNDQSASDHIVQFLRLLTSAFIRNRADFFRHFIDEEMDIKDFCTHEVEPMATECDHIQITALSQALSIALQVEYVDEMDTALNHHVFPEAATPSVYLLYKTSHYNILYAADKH"}, "source": "the supplement of paper PMC12819154", "about": "“High-throughput peptide-centric local stability assay extends protein–ligand identification to membrane proteins, tissues and bacteria” (Nature Structural & Molecular Biology, 2025)", "note": "This is one part of the list. Most values lie at the level of the controls, where differences are scatter.", "data": [{"compound": "CN[C@@H]1C[C@H]2O[C@@](C)([C@@H]1OC)n1c3ccccc3c3c4c(c5c6ccccc6n2c5c31)C(=O)NC4 [staurosporine]", "assay": "log2 fold change of tryptic peptide abundance, ligand vs vehicle (limited proteolysis) (log2 ratio); higher = more trypsin-susceptible (destabilized)", "conditions": "ligand concentration: 20 uM; sample: K562 cleared lysate; digestion: 4 min, 22 C (HT-PELSA RT4min, Orbitrap Astral)", "values": [{"target": "BRF1 (peptide sequence: EDAQPEHSASAR, peptide start residue: 557) (UniProt Q92994)", "log2 fold change": 1.28}, {"target": "OPTN (peptide sequence: SSEDPTDDSR, peptide start residue: 121) (UniProt Q96CV9)", "log2 fold change": 0.758}, {"target": "UniProt Q96EU6 (peptide sequence: HLSGEEHEK, peptide start residue: 159)", "log2 fold change": 0.426}, {"target": "UBE2F (peptide sequence: NKVDDYIKR, peptide start residue: 174) (UniProt Q969M7)", "log2 fold change": 0.167}, {"target": "UniProt Q969U6 (peptide sequence: TFFSWLASQR, peptide start residue: 556)", "log2 fold change": -0.314}, {"target": "KHSRP (peptide sequence: DQGGFGDRNEYGSR, peptide start residue: 307) (UniProt Q92945)", "log2 fold change": -0.174}, {"target": "RUNDC1 (peptide sequence: VKEQLVEQLK, peptide start residue: 262) (UniProt Q96C34)", "log2 fold change": 0.778}, {"target": "DAZAP1 (peptide sequence: LFVGGLDWSTTQETLR, peptide start residue: 12) (UniProt Q96EP5)", "log2 fold change": -0.234}, {"target": "ERCC4 (peptide sequence: LTLLTLHFPR, peptide start residue: 788) (UniProt Q92889)", "log2 fold change": -0.36}, {"target": "UniProt Q96EM0 (peptide sequence: FALDFGLVPAPPAGTR, peptide start residue: 114)", "log2 fold change": -0.218}, {"target": "FLYWCH2 (peptide sequence: PGTEVIPAAPR, peptide start residue: 24) (UniProt Q96CP2)", "log2 fold change": 0.579}, {"target": "S100PBP (peptide sequence: SLVVSTSSNK, peptide start residue: 268) (UniProt Q96BU1)", "log2 fold change": -0.178}, {"target": "THOC1 (peptide sequence: RHILLQYLILFQYLK, peptide start residue: 319) (UniProt Q96FV9)", "log2 fold change": 0.73}, {"target": "RNF25 (peptide sequence: GPGSWQGPPPRR, peptide start residue: 402) (UniProt Q96BH1)", "log2 fold change": 0.229}, {"target": "PSMG2 (peptide sequence: CIPEIDDSEFCIR, peptide start residue: 168) (UniProt Q969U7)", "log2 fold change": -0.306}, {"target": "BSCL2 (peptide sequence: FSLQVNIR, peptide start residue: 268) (UniProt Q96G97)", "log2 fold change": -0.0766}, {"target": "UniProt Q93015 (peptide sequence: KAPNLTAQAAPR, peptide start residue: 223)", "log2 fold change": 0.295}, {"target": "DCPS (peptide sequence: ELDVEEAHAASTEEK, peptide start residue: 14) (UniProt Q96C86)", "log2 fold change": -0.0793}, {"target": "KAT5 (peptide sequence: KLFYVHYIDFNKR, peptide start residue: 41) (UniProt Q92993)", "log2 fold change": -0.6}, {"target": "CYFIP2 (peptide sequence: GLQVLMGR, peptide start residue: 460) (UniProt Q96F07)", "log2 fold change": 0.337}, {"target": "CCDC102A (peptide sequence: ELAQAEDELDEAHNQAR, peptide start residue: 466) (UniProt Q96A19)", "log2 fold change": 0.8}, {"target": "TRIM11 (peptide sequence: VPGLVETLR, peptide start residue: 275) (UniProt Q96F44)", "log2 fold change": -0.167}, {"target": "UniProt Q96C03 (peptide sequence: LVLGVGGAAVLGIATLAVKR, peptide start residue: 30)", "log2 fold change": -0.00909}, {"target": "RFK (peptide sequence: IKEDNFFQVSK, peptide start residue: 138) (UniProt Q969G6)", "log2 fold change": 0.696}, {"target": "CCDC97 (peptide sequence: VAILAQLYHEKPLVFLER, peptide start residue: 93) (UniProt Q96F63)", "log2 fold change": -0.174}, {"target": "TRIM44 (peptide sequence: VIADEEQK, peptide start residue: 269) (UniProt Q96DX7)", "log2 fold change": -0.118}, {"target": "OTUB2 (peptide sequence: CDILSILR, peptide start residue: 13) (UniProt Q96DC9)", "log2 fold change": 0.0314}, {"target": "ACD (peptide sequence: GAQEPCSVWEPPKR, peptide start residue: 394) (UniProt Q96AP0)", "log2 fold change": 0.428}]}]}
